Measurements reported in PubChem BioAssay AID493246 (Drosophila RNAi Screening Center, 2011)
The screen tested about 21,000 reagents; below is a random part of those that have a named target and a result. Over the whole deposit, 429 (2%) got an active call. 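Values are raw and not normalised between plates; calls rest on per-plate z-scores that were not deposited.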 Reagents against one gene are numbered here. No sequences are given here. The record does not give: the amount of reagent, the time to read-out.

Purpose: 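Genome-wide search for dsRNAs that reduce cell number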 (primary screen)
System: Drosophila Kc and S2R+ cells
Reagent: long dsRNA against Drosophila genes
Measured: 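Raw, unnormalised count of remaining cells in each well; per-plate z-scores of cell number underlie the calls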
Direction: Kc cell number and S2R+ cell number: higher = more cells remaining
Active means: 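Counted as a hit if cell number falls by a z-score of at least 3 within its plate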

Knock-down of Spase22-23 (Spase 22/23-subunit) resulted in: Kc cell number, rep 1 = 1.68e6; Kc cell number, rep 2 = 1.59e6; S2R+ cell number, rep 1 = 1.05e6; S2R+ cell number, rep 2 = 1.14e6; inactive.
Naxd (NAD(P)HX dehydratase) scored Kc cell number, rep 1 = 1.57e6; Kc cell number, rep 2 = 1.55e6; S2R+ cell number, rep 1 = 1.33e6; S2R+ cell number, rep 2 = 1.50e6; inactive.
With knock-down of mwh (multiple wing hairs), the screen gave Kc cell number, rep 1 = 1.64e6; Kc cell number, rep 2 = 1.56e6; S2R+ cell number, rep 1 = 1.04e6; S2R+ cell number, rep 2 = 1.57e6; inactive.
Knock-down of Drep2 (DNA fragmentation factor-related protein 2) resulted in: Kc cell number, rep 1 = 1.32e6; Kc cell number, rep 2 = 1.40e6; S2R+ cell number, rep 1 = 1.01e6; S2R+ cell number, rep 2 = 1.07e6; inactive.
Silencing of gt (giant) resulted in: Kc cell number, rep 1 = 1.28e6; Kc cell number, rep 2 = 1.55e6; S2R+ cell number, rep 1 = 7.70e5; S2R+ cell number, rep 2 = 8.12e5; inactive.
Knock-down of CG6749 resulted in: Kc cell number, rep 1 = 1.30e6; Kc cell number, rep 2 = 1.36e6; S2R+ cell number, rep 1 = 1.37e6; S2R+ cell number, rep 2 = 1.52e6; inactive.
RabX1 showed Kc cell number, rep 1 = 1.44e6; Kc cell number, rep 2 = 1.51e6; S2R+ cell number, rep 1 = 1.25e6; S2R+ cell number, rep 2 = 1.36e6; inactive.
m-cup (mann-cup) gave Kc cell number, rep 1 = 1.29e6; Kc cell number, rep 2 = 1.33e6; S2R+ cell number, rep 1 = 1.09e6; S2R+ cell number, rep 2 = 1.27e6; inactive.
CG4537 scored Kc cell number, rep 1 = 1.72e6; Kc cell number, rep 2 = 1.64e6; S2R+ cell number, rep 1 = 1.26e6; S2R+ cell number, rep 2 = 1.42e6; inactive.
Knock-down of ase (asense) came out at: Kc cell number, rep 1 = 1.51e6; Kc cell number, rep 2 = 1.57e6; S2R+ cell number, rep 1 = 1.08e6; S2R+ cell number, rep 2 = 1.16e6; inactive.

A stretch taken from the entries so far, for reference:
m-cup (mann-cup): Kc cell number, rep 1 = 1.29e6; Kc cell number, rep 2 = 1.33e6; S2R+ cell number, rep 1 = 1.09e6; S2R+ cell number, rep 2 = 1.27e6; Outcome = inactive
CG4537: Kc cell number, rep 1 = 1.72e6; Kc cell number, rep 2 = 1.64e6; S2R+ cell number, rep 1 = 1.26e6; S2R+ cell number, rep 2 = 1.42e6; Outcome = inactive

The listing continues.
CG30427 #1 scored Kc cell number, rep 1 = 1.42e6; Kc cell number, rep 2 = 1.50e6; S2R+ cell number, rep 1 = 9.40e5; S2R+ cell number, rep 2 = 1.04e6; inactive.
Knock-down of CG30427 #2 came out at: Kc cell number, rep 1 = 1.37e6; Kc cell number, rep 2 = 1.39e6; S2R+ cell number, rep 1 = 1.15e6; S2R+ cell number, rep 2 = 1.17e6; inactive.
Silencing of CG30427 #3 came out at: Kc cell number, rep 1 = 1.50e6; Kc cell number, rep 2 = 1.64e6; S2R+ cell number, rep 1 = 1.45e6; S2R+ cell number, rep 2 = 1.73e6; inactive.
Zw (Zwischenferment) showed Kc cell number, rep 1 = 1.46e6; Kc cell number, rep 2 = 1.50e6; S2R+ cell number, rep 1 = 1.04e6; S2R+ cell number, rep 2 = 1.17e6; inactive.
For Uxs (UDP-xylose synthase), the entry reads Kc cell number, rep 1 = 1.27e6; Kc cell number, rep 2 = 1.37e6; S2R+ cell number, rep 1 = 1.19e6; S2R+ cell number, rep 2 = 1.18e6; inactive.
Against ckn (caskin) the deposit lists Kc cell number, rep 1 = 1.34e6; Kc cell number, rep 2 = 1.44e6; S2R+ cell number, rep 1 = 9.99e5; S2R+ cell number, rep 2 = 9.14e5; inactive.
Grp170 (Grp170 co-chaperone) showed Kc cell number, rep 1 = 5.25e5; S2R+ cell number, rep 1 = 8.86e5; inactive.
CG31038 #1 showed Kc cell number, rep 1 = 4.61e5; S2R+ cell number, rep 1 = 8.19e5; inactive.
After knock-down of CG31038 #2, the screen gave Kc cell number, rep 1 = 1.79e6; Kc cell number, rep 2 = 1.83e6; S2R+ cell number, rep 1 = 1.15e6; S2R+ cell number, rep 2 = 1.23e6; inactive.
Against CG31038 #3, the values are Kc cell number, rep 1 = 1.57e6; Kc cell number, rep 2 = 1.64e6; S2R+ cell number, rep 1 = 1.05e6; S2R+ cell number, rep 2 = 1.13e6; inactive.
Cht7 (Chitinase 7) gave Kc cell number, rep 1 = 9.34e5; Kc cell number, rep 2 = 1.20e6; S2R+ cell number, rep 1 = 1.19e6; S2R+ cell number, rep 2 = 8.87e5; inactive.
